Assay results from publication PMC10163288.
The other results are listed elsewhere or left out.

B1: il2ra_site2_3nfp_sap_19_mot_HHH_b1_06589_000000230_0001_37_50_H_._HHH_b2_07793_0001_0000300009_0000001_0_0001_af2pred_0001_af2pred_swapped (protein)
chain: SSSSDREEEIRKLIEEAERLLEEGNPEEARKIVREALQLIRELGDAELAQELAEVIAKLESSSSS
B2: il2ra_site2_3nfp_normal_mot_HHH_b1_06613_af2_000000098_0001_23_40_H_._72a79b14e1a0e827e78e129a6f5f8f0c_0001_1_0001_0000300023_0000001_0_af2pred_0001_1_af2pred_s … (protein)
chain: TKELSRRILELYERGDPVAFELYALLADVQATGDPELRELLEEALEALERGNPEEAKEIVKKALK
B3: il2ra_site1_1z92_normal_mot_HHH_b2_00141_000000217_0001_1_20_H_._2fd006765095e2299ff75ffcaa73beff_0001_0001_0000100003_0000001_0_af2pred_0001_af2pred (protein)
chain: TNAEQVVEEAREKAPTPEERAELLIRILEEEANLPPELAIQLAKIIAKRLGDEELLRALEKLERK
B4: il2ra_site1_3nfp_normal_mot_HHH_b1_00258_000000025_0001_42_56_H_._HHH_b1_03924_af2_0002_0000500043_0000001_0_af2pred_0001_af2pred (protein)
chain: SSSSQELIRRASELFQQAAEADRRGNPEEARELLEEAREFAEEGGNPSLLRKIENALRVLESSSS
B5: il2ra_site1_3nfp_normal_mot_ems_3hC_3_0002_000000237_0001_23_41_H_._971380201c9414114138cf1fdc40c0f4_0001_1_0001_0000300014_0000001_0_af2pred_0001_af2pred (protein)
chain: SLAEELVEEIEEKGLPPEEIEKLIREILKRIGDPEEAREFFEELMRLAAKNRNEELLEAIKLVLR
B6: il2ra_site1_3nfp_sap_13_mot_128f4ffdc04e91eb29c4fde961ab618d_0001_000000128_0001_20_34_H_._1b95bd2019fc3dfb9cd1cac0defa3d0f_0001_0001_0000300011_0000001_0_0001 (protein)
chain: SSSSTEELRELLELVERAFRAAREGDEELVEELLEEAKELAEKLGDKIARRLLEDIEKNLSSSSS
B7: il2ra_site2_3nfp_normal_mot_HHH_b2_07129_000000128_0001_19_36_H_._HHH_b2_01739_af2_0001_0000100008_0000001_0 (protein)
chain: SSSSDEEERIEELIEQAEEALKKGDRELARKLLEELARLVWEHRDHEAFALVADLALLIQQSSSS
B8: il2ra_site1_2b5i_normal_mot_f5ff40796168375b462bec8614a1db4a_0001_1_000000138_0001_53_65_H_._HHH_b2_00149_0001_0000400026_0000001_0_af2pred_0001_af2pred_1 (protein)
chain: SSSSSDEELLRELIEALLELAKHIEDPERRRAVLQLALSAARKNNDEELEELVEEVIEELSSSSS
B9: il2ra_site1_2b5i_normal_mot_f5ff40796168375b462bec8614a1db4a_0001_1_000000138_0001_53_65_H_._HHH_b1_01266_0001_0000200014_0000001_0_af2pred_dldesign_0_af2pred (protein)
chain: SSSSSDARELVEELLERARALHEAGRPEEARRLLTLAARIARKAGDEELLARVEALRAELESSSS
B10: il2ra_site1_2b5i_sap_12_mot_HHH_b1_01346_af2_000000027_0001_1_20_H_._HHH_b1_06806_0001_0000800052_0000001_0_0001_af2pred_dldesign_0_af2pred (protein)
chain: SSSSDPRADVEELIAKAKELKEQGKLEEAYKIARLALRLARKLGDEELIARVQALLEEVKSSSSS

The binders below were run against il2ra, P01589 (assay: yeast display titration).

Apparent Kd, inactive:
B1 no binding seen
B2 no binding seen
B3 no binding seen
B4 no binding seen
B5 no binding seen
B6 no binding seen
B7 no binding seen
B8 no binding seen
B9 no binding seen
B10 no binding seen

2 records picked at random from those above:
Apparent Kd, inactive:
B9 no binding seen
B4 no binding seen
